{
  "source": "patent US5637584A",
  "about": "“Solvate of olanzapine” (Eli Lilly and Company, priority 1995, dated 1997)",
  "test_system": "5-HT1C receptor",
  "details": "in vitro",
  "data": [
    {"smiles": "Cc1cc2c(s1)Nc1ccccc1N=C2N1CCN(C)CC1", "note": "[anhydrous Form I olanzapine, 2-methyl-4-(4-methyl-1-piperazinyl)-10H-thieno[2,3-b][1,5]benzodiazepine]", "values": [
      {"measurement": "activity at the 5-HT1C receptor", "value": "active"}
    ]}
  ]
}
